According to PMC11106742 (ACS Chemical Biology, 2024):

Assay: general procedure: Fmoc solid-phase peptide synthesis; 2-Chlorotrityl ProTide (CEM, 0.45 mmol/g); Fmoc-L-Ser(2-CTC)-OAll support for amide and dicarba isosteres; DIC (5 equiv) and Oxyma (10 equiv) in DMF; HATU/DIPEA for isosteres
Conditions: whole synthesis, Shimadzu Nexera HPLC, diode array detector, C8 reversed-phase analytical column, scale of the general procedure 0.1 mmol
For “PEPTIDE1{[NMeLeu].[aIle].S.[aThr].[bAla].[NDodGly]}$PEPTIDE1,PEPTIDE1,1:R1-6:R2$$$V2.0”, the “final HPLC purity” value was >95%. With “PEPTIDE1{[NMeLeu].[aIle].S.[aThr].[bAla].[NEtPEG3Gly]}$PEPTIDE1,PEPTIDE1,1:R1-6:R2$$$V2.0” the “final HPLC purity” value was >95%. With “PEPTIDE1{[NMeLeu].[aIle].S.[aThr].[bAla].[NOctAla]}$PEPTIDE1,PEPTIDE1,1:R1-6:R2$$$V2.0” the “final HPLC purity” value was >95%. With “PEPTIDE1{[NMeLeu].[aIle].S.[aThr].[bAla].[NOctGly]}$PEPTIDE1,PEPTIDE1,1:R1-6:R2$$$V2.0” the “final HPLC purity” value was >95%.

Strings that start with PEPTIDE1 are HELM notation: dots part the residues, brackets hold end groups and non-standard residues. The same purity stands for every peptide and may come from a single statement.
